Drawing on article PMC10952895, “Assessment of the potential of novel and classical opioids to induce respiratory depression in mice” (British Journal of Pharmacology, 2023), this text covers binding for one substance.

Amino acid sequences for entries named in this document (tags omitted).
UniProt P42866: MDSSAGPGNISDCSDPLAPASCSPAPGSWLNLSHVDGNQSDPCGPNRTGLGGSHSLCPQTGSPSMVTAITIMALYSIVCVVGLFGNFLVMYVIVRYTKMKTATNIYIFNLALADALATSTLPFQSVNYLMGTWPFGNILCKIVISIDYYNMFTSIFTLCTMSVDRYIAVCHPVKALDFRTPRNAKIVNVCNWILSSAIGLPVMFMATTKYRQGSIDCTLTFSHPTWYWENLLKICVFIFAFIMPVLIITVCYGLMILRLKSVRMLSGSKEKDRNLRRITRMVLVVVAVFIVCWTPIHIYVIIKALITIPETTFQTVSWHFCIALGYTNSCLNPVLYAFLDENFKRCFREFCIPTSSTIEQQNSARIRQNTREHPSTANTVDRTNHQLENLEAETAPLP
UniProt P32121: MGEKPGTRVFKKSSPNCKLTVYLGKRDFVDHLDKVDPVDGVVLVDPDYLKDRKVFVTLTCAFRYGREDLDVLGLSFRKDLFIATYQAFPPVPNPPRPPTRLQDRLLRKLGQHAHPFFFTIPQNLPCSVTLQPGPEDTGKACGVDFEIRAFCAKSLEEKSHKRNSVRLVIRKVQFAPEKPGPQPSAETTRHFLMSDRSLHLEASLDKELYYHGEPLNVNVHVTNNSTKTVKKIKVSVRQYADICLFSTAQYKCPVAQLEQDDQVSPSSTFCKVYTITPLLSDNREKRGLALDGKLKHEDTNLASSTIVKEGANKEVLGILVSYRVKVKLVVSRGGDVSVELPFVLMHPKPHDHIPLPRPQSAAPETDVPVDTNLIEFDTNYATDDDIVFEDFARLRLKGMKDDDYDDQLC

Results are given in words; binding and its absence hold for the method and conditions named. Binding seen in cells or lysates may run through a third protein. Some binding calls cover weakened binding; strength is not graded here.

This assay has as its target μ-receptor-RLuc8 (UniProt P42866). The assay can be described thus: FRET or BRET; live HEK 293 cells transiently transfected with μ-receptor-RLuc8 (donor), arrestin-3-Venus (acceptor) and GRK2; PBS, coelenterazine h 5 μM; opioid agonists added (DAMGO, morphine, oxycodone, methadone, tianeptine, oliceridine, SR-17018); response 10 min after opioid addition, normalised to DAMGO.

As to “arrestin-3-Venus (from UniProt P32121 1-409)”, the binding entry is recorded as “binds”.
